The results in this text go back to PubChem BioAssay AID328 (DTP/NCI, 2004).

This experiment deals with BDF1 mice, P388 leukemia ip, median survival T/C. Description: NCI In Vivo Anticancer Drug Screen. Data for tumor model P388 Leukemia (intraperitoneal) in B6D2F1 (BDF1) mice. As to conditions: T/C endpoint: median survival time, higher T/C = longer survival. Summed up:
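Each value expresses how treatment altered survival: treated-mouse outcome over vehicle-mouse outcome, both groups bearing the transplanted tumour.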

The mark [1] stands for this setting: dose: 25.0 mg/kg/injection, schedule: Q01DX009 (ip), vehicle: Klucel (hydroxypropylcellulose) (HPC).
Setting [2] is: dose: 100.0 mg/kg/injection, schedule: Q04DX003 (ip), vehicle: saline with Tween-80.
Where [3] appears, read: dose: 400.0 mg/kg/injection, schedule: Q04DX003 (ip), vehicle: saline with Tween-80.
Where [4] appears, read: dose: 200.0 mg/kg/injection, schedule: Q01DX009 (ip), vehicle: saline.
Setting [5] is: dose: 50.0 mg/kg/injection, schedule: Q01DX009 (ip), vehicle: saline.

The list is a part of this screen's results and no random one: it gathers tests that were run many times, whatever their T/C, doses with no T/C, and many T/C values between a quarter and a half above the control. Further doses and runs are listed elsewhere. T/C gives the treated animals as a percentage of the vehicle group. Some entries give survivors of the animals treated and no T/C: the source holds a T/C of zero for them, seemingly a mark for toxic or unscored doses. Some survivor counts are full or nearly so, which does not show that the dose was tolerated: the source hardly ever lists a survival T/C far under the control, and the zero likely stands for such cases as well. Counts of survivors are from the toxicity check (mostly the fifth day) where no day follows; animals may have died later. Schedules are NCI's codes, taken here to give the interval after Q, in days (D) or hours (H), and the number of doses after X. Some entries were tested several times; the values are given in rising order. Where survival is the endpoint, the PubChem record calls one and a half times the control and up active, and a quarter to a half above the control has no call in these data; cut-offs in other NCI protocols can differ. Some T/C values carry the count of animals alive at the toxicity check (mostly the fifth day); without a count, all were alive then.

For `Cc1nc2ccccc2nc1CBr`, the T/C is 133 % of control (dose: 3.2 mg/kg/injection, schedule: Q01DX009 (ip), vehicle: Klucel (hydroxypropylcellulose) (HPC)); 127 % of control (dose: 4.0 mg/kg/injection, schedule: Q01DX009 (ip), vehicle: saline with Tween-80); 145 % of control (dose: 6.25 mg/kg/injection, schedule: Q01DX009 (ip), vehicle: saline with Tween-80); 127 % of control (dose: 9.0 mg/kg/injection, schedule: Q01DX009 (ip), vehicle: saline with Tween-80); 144 % of control (dose: 12.5 mg/kg/injection, schedule: Q01DX009 (ip), vehicle: Klucel (hydroxypropylcellulose) (HPC)); 127 % of control (dose: 12.5 mg/kg/injection, schedule: Q01DX009 (ip), vehicle: saline with Tween-80). For the same compound, under setting [1], the T/C was 144 % of control. The survivor count runs as follows: under setting [1], 6 of 6; (dose: 50.0 mg/kg/injection, schedule: Q01DX009 (ip), vehicle: Klucel (hydroxypropylcellulose) (HPC)) 0 of 6 and 4 of 6; under setting [2], 2 of 6; (dose: 200.0 mg/kg/injection, schedule: Q04DX003 (ip), vehicle: saline with Tween-80) 0 of 6; under setting [3], 0 of 6.

Turning to `O=c1[nH]c(=O)n([C@H]2CCCO2)cc1F`, the T/C runs as follows: (dose: 201.0 mg/kg/injection, schedule: Q01DX009 (ip), vehicle: Klucel (hydroxypropylcellulose) (HPC)) 129 % of control; (dose: 645.0 mg/kg/injection, schedule: Q04DX003 (ip), vehicle: Klucel (hydroxypropylcellulose) (HPC)) 132 % of control; (dose: 957.0 mg/kg/injection, schedule: Q01DX001 (ip), vehicle: Klucel (hydroxypropylcellulose) (HPC)) 137 % of control; (dose: 1436.0 mg/kg/injection, schedule: Q01DX001 (ip), vehicle: Klucel (hydroxypropylcellulose) (HPC)) 137 % of control. Also, the survivor count (dose: 833.0 mg/kg/injection, schedule: Q04DX003 (ip), vehicle: water) was 1 of 8.

As to `COC(C(=O)C(O)C(C)O)C1Cc2cc3cc(OC4CC(OC5CC(O)C(O)C(C)O5)C(O)C(C)O4)c(C)c(O)c3c(O)c2C(=O)C1OC1CC(OC2CC(O)C(OC3CC(C)(O)C(O)C(C)O3)C(C)O2)C(O)C(C)O1` (stereo unspecified), the T/C is 129 and 130 % of control (dose: 0.13 mg/kg/injection, schedule: Q01DX009 (ip), vehicle: saline); 134 % of control (dose: 0.25 mg/kg/injection, schedule: Q01DX009 (ip), vehicle: saline); 136 % of control (dose: 0.5 mg/kg/injection, schedule: Q01DX009 (ip), vehicle: saline); 127 % of control [2 of 3 alive] (dose: 1.0 mg/kg/injection, schedule: Q01DX009 (ip), vehicle: saline); 142 % of control (dose: 1.0 mg/kg/injection, schedule: Q04DX003 (ip), vehicle: saline); 125 % of control [7 of 10 alive] (dose: 2.0 mg/kg/injection, schedule: Q04DX003 (ip), vehicle: saline). The survivor count (dose: 2.0 mg/kg/injection, schedule: Q01DX009 (ip), vehicle: saline) is on record as 3 of 3.

As to `N=C(N)Sc1cc(O)ccc1O`, the T/C runs as follows: (dose: 37.5 mg/kg/injection, schedule: Q01DX009 (ip), vehicle: saline) 148 % of control; (dose: 75.0 mg/kg/injection, schedule: Q01DX009 (ip), vehicle: saline) 129 % of control; (dose: 100.0 mg/kg/injection, schedule: Q01DX009 (ip), vehicle: saline) 136 % of control; (dose: 150.0 mg/kg/injection, schedule: Q01DX009 (ip), vehicle: saline) 132 and 140 % of control; under setting [4], 131 % of control; (dose: 300.0 mg/kg/injection, schedule: Q01DX009 (ip), vehicle: saline) 138 % of control [5 of 6 alive].

In the case of `CC1(C(=O)N2CC2)OC1c1ccccc1` (stereo unspecified), the survivor count was 6 of 6 (dose: 200.0 mg/kg/injection, schedule: Q04DX002 (ip), vehicle: saline with Tween-80) and 3 of 6 (dose: 400.0 mg/kg/injection, schedule: Q04DX002 (ip), vehicle: saline with Tween-80).

Consider `CN(C)c1ccc(/C=C/c2ccc3ccccc3[n+]2C)cc1`, for which the T/C by setting is: (dose: 0.78 mg/kg/injection, schedule: Q01DX009 (ip), vehicle: saline with Tween-80) 125 % of control; (dose: 1.56 mg/kg/injection, schedule: Q01DX009 (ip), vehicle: saline with Tween-80) 135 % of control [5 of 6 alive]; (dose: 2.6 mg/kg/injection, schedule: Q01DX009 (ip), vehicle: Klucel (hydroxypropylcellulose) (HPC)) 130 % of control; (dose: 3.12 mg/kg/injection, schedule: Q01DX009 (ip), vehicle: saline with Tween-80) 125 % of control; (dose: 4.0 mg/kg/injection, schedule: Q01DX009 (ip), vehicle: Klucel (hydroxypropylcellulose) (HPC)) 130 % of control; (dose: 6.0 mg/kg/injection, schedule: Q01DX009 (ip), vehicle: Klucel (hydroxypropylcellulose) (HPC)) 140 % of control. The survivor count was 6 of 6 (dose: 1.8 mg/kg/injection, schedule: Q01DX009 (ip), vehicle: Klucel (hydroxypropylcellulose) (HPC)); 1 of 6 (dose: 25.0 mg/kg/injection, schedule: Q01DX009 (ip), vehicle: saline); 0 of 6 under setting [5].

Take `O=Cc1cc(O)ccc1[N+](=O)[O-]`: the survivor count under setting [3] was 1 of 6.

Take `C[C@]12CCCC[C@@H]1CC[C@@H]1[C@@H]2[C@@H](O)C[C@]2(C)[C@@H](O)CC[C@@H]12`: the T/C under setting [2] was 127 % of control.

In the case of `C[C@]12CCC(=O)C[C@@H]1CC[C@@H]1[C@@H]2CC[C@]2(C)[C@@H](OC(=O)N(CCCl)N=O)CC[C@@H]12`, the survivor count reads like this: under setting [5], 6 of 6; under setting [4], 6 of 6.

For `CN1c2ccccc2C(=O)N2CCc3c([nH]c4ccccc34)C21` (stereo unspecified), the T/C (dose: 40.0 mg/kg/injection, schedule: Q01DX009 (ip), vehicle: saline with Tween-80) was 126 % of control.

Turning to `O=C(O)c1ccc(CCCC2CCCC2)cc1`, the survivor count (dose: 400.0 mg/kg/injection, schedule: Q04DX003 (ip), vehicle: Klucel (hydroxypropylcellulose) (HPC)) is listed as 4 of 6.

Consider `CCCCN(C)N=Nc1ccccc1C(N)=O`, for which the survivor count is recorded as 6 of 6 (dose: 200.0 mg/kg/injection, schedule: Q01DX009 (ip), vehicle: saline with Tween-80) and 4 of 6 (dose: 400.0 mg/kg/injection, schedule: Q01DX009 (ip), vehicle: saline with Tween-80).

As to `COc1cc([C@@H]2c3cc4c(cc3C[C@H]3COC(=O)[C@@H]32)OCO4)cc(OC)c1OC`, the T/C is, setting by setting: (dose: 2.5 mg/kg/injection, schedule: Q01DX010 (ip), vehicle: other) 127 % of control; (dose: 5.0 mg/kg/injection, schedule: Q01DX010 (ip), vehicle: other) 136 % of control; (dose: 5.0 mg/kg/injection, schedule: Q01DX010 (ip), vehicle: saline) 127 % of control; (dose: 10.0 mg/kg/injection, schedule: Q01DX001 (ip), vehicle: other) 131 % of control; (dose: 10.0 mg/kg/injection, schedule: Q01DX010 (ip), vehicle: saline) 131 and 145 % of control; (dose: 20.0 mg/kg/injection, schedule: Q01DX001 (ip), vehicle: other) 131 % of control. For the same compound, the survivor count (dose: 12.5 mg/kg/injection, schedule: Q01DX010 (ip), vehicle: carboxymethylcellulose (CMC)) is listed as 2 of 6; the survivor count (dose: 20.0 mg/kg/injection, schedule: Q01DX010 (ip), vehicle: saline) was 6 of 6; the survivor count (dose: 25.0 mg/kg/injection, schedule: Q01DX010 (ip), vehicle: carboxymethylcellulose (CMC)) was 2 of 6; the survivor count (dose: 40.0 mg/kg/injection, schedule: Q01DX010 (ip), vehicle: saline) was 6 of 6; the survivor count (dose: 50.0 mg/kg/injection, schedule: Q01DX010 (ip), vehicle: carboxymethylcellulose (CMC)) is recorded as 0 of 6; the survivor count (dose: 80.0 mg/kg/injection, schedule: Q01DX010 (ip), vehicle: saline) is on record as 0 of 6.
